Measured values: article PMC9034549
No constants are given. Whether binding was seen depends on the method and setting. Binding seen in cells or lysates may run through a third protein. Some entries that bind do so weakly or less than the wild type.

Amino acid sequences for entries named in this document (tags omitted).
UniProt Q9NS91: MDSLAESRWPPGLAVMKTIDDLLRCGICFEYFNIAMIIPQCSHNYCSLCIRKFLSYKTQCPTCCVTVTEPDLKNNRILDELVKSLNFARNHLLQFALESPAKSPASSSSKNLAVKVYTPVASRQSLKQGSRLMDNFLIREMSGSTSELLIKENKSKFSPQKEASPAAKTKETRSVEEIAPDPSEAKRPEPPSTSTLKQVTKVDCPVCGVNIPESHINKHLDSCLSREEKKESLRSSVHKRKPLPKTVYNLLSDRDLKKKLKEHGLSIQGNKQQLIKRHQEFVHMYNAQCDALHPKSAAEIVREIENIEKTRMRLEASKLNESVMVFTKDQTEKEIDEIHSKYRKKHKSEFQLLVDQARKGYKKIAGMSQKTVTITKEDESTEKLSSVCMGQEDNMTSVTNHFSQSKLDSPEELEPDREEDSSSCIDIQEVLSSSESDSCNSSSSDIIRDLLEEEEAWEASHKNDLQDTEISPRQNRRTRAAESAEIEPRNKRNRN
UniProt O60934: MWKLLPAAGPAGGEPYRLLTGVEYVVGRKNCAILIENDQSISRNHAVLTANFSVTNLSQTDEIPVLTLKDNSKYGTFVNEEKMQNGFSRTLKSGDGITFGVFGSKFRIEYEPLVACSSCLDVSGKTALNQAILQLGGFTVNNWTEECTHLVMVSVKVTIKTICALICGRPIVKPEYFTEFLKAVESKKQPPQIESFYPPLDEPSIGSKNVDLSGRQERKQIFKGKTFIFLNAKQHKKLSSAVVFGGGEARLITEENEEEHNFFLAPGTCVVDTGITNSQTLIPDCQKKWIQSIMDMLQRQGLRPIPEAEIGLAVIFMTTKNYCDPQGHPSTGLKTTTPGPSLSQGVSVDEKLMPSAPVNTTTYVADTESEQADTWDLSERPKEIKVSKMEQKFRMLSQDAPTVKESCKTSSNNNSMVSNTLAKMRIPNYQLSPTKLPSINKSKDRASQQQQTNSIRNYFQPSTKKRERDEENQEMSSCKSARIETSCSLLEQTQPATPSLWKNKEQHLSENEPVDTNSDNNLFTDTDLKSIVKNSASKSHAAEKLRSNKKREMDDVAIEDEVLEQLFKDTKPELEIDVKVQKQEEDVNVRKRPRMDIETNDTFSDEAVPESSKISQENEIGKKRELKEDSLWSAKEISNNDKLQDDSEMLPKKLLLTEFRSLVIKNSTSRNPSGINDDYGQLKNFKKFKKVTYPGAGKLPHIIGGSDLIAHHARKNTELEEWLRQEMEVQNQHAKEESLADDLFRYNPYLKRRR
UniProt Q92878: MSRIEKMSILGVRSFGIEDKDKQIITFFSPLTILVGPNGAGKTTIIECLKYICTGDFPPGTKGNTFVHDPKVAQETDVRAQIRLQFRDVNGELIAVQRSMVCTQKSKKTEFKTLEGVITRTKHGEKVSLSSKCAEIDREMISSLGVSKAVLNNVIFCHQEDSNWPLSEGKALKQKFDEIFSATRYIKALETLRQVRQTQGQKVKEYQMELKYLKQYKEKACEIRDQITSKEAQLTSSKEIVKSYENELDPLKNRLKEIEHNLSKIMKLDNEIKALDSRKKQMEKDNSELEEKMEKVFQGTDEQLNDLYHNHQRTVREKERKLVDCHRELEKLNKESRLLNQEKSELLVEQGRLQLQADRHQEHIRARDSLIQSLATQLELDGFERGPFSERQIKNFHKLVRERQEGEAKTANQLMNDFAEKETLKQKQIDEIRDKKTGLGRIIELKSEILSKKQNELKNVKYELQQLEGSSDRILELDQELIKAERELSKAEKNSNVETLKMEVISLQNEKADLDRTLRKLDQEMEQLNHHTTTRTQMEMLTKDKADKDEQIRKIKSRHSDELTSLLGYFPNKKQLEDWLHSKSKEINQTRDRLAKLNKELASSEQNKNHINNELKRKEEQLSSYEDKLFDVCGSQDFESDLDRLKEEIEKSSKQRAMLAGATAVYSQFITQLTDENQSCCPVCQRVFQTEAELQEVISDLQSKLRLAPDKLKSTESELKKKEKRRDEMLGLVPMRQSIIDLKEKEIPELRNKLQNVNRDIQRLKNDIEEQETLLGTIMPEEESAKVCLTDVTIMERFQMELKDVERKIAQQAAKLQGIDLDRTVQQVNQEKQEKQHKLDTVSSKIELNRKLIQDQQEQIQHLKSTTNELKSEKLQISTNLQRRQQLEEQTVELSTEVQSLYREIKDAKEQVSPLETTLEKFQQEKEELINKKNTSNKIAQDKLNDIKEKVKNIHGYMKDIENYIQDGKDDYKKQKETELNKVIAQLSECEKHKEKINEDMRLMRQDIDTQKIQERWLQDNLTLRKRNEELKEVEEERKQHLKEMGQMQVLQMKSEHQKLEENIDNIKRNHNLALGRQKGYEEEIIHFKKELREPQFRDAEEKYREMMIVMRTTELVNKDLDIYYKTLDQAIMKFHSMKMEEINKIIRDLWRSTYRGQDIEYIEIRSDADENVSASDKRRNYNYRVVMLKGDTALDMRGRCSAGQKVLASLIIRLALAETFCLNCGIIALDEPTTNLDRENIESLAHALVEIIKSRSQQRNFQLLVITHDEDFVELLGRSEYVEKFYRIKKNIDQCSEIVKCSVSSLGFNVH

Target: E3 ubiquitin-protein ligase Rad18 (human (endogenous in 143B)) (UniProt Q9NS91)
Assay: co-IP; lysates of 143B and 143B-Res cells, immunoprecipitated with Rad18 antibody, western blot; also 143B cells with 0 or 5 μM doxorubicin (6 h); wash 50 mM Tris-HCl pH 7.4, 150 mM NaCl, 0.5% NP-40

| binding | Substance |
| --- | --- |
| binds | NBS1 (from UniProt O60934 1-754) |
| binds | RAD50 (from UniProt Q92878 1-1312) |
